Assay results reported in the supplement of paper PMC10849652.
This is one part of the list.

Compound: Cn1cc(-c2ccc3c(c2)CCN3C(=O)Cc2cccc(C(F)(F)F)c2)c2c(N)ncnc21
Assay: log2 fold change, soluble protein after heating vs DMSO (PISA); higher = thermal stabilisation; K562 lysate, 10 uM; active = over 0.2 and 3.5 SD of the protein, either way, in both replicates (recomputed)
Method in brief: (§1)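 To prepare the extract, K562 pellets were dounce-homogenised in PBS pH 7.4 with 1 mM MgCl2, giving crude material at 1 mg/mL protein. This was treated with 10 μM compound for 30 min, then heated in aliquots for 3 min over 48°C-58°C before pooling and addition of NP-40 to 0.5% at 4°C. Centrifugation at 21,000xg for 90 min left soluble protein in the supernatant, which TMTpro 16plex LC-MS/MS quantified with equalised channel sums. Results are log-two fold changes in thermal stability compared with solvent controls, from duplicates.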

**Q.** PPP4R4 (UniProt Q6NUP7) was tested. Which log2 fold change did it give?
**A.** inactive: -0.12

**Q.** For PRKCQ (UniProt Q04759), which log2 fold change is on record?
**A.** inactive: -0.004

**Q.** PPP5C (UniProt P53041) was tested. Which log2 fold change did it give?
**A.** inactive: 0.005

**Q.** For PRMT9 (UniProt Q6P2P2), which log2 fold change is on record?
**A.** inactive: 0.031

**Q.** PRKAR1B (UniProt P31321) was tested. Which log2 fold change did it give?
**A.** inactive: 0.243

**Q.** With PRKX (UniProt P51817) as the target, how does the log2 fold change read?
**A.** inactive: -0.187

**Q.** Which log2 fold change does the source give for PRORP (UniProt O15091) here?
**A.** inactive: 0.02

**Q.** For PRNP (UniProt P04156), which log2 fold change is on record?
**A.** inactive: 0.021

**Q.** How did the log2 fold change turn out when PRPF19 (UniProt Q9UMS4) was run?
**A.** inactive: 0.019

**Q.** PPP2R5B (UniProt Q15173) was tested. Which log2 fold change did it give?
**A.** inactive: 0.021

**Q.** With PPP6R1 (UniProt Q9UPN7) as the target, how does the log2 fold change read?
**A.** inactive: 0.023

**Q.** How did the log2 fold change turn out when PPP6C isoform 3 (UniProt O00743) was run?
**A.** inactive: -0.011

**Q.** With PRKACA (UniProt P17612) as the target, how does the log2 fold change read?
**A.** inactive: 0.049

**Q.** With PRKD2 isoform 3 (UniProt Q9BZL6) as the target, how does the log2 fold change read?
**A.** inactive: 0.04

**Q.** PPP1R14C (UniProt Q8TAE6) was tested. Which log2 fold change did it give?
**A.** inactive: -0.173

**Q.** PRKDC (UniProt P78527) was tested. Which log2 fold change did it give?
**A.** inactive: 0.038

**Q.** PRG4 (UniProt Q92954) was tested. Which log2 fold change did it give?
**A.** inactive: 0.024

**Q.** How did the log2 fold change turn out when PRMT1 (UniProt Q99873) was run?
**A.** inactive: -0.001

**Q.** With PROS1 (UniProt P07225) as the target, how does the log2 fold change read?
**A.** inactive: 0.037

**Q.** Which log2 fold change does the source give for PPP1R12B isoform 6 (UniProt O60237) here?
**A.** inactive: 0.134

**Q.** Which log2 fold change does the source give for PRKCA (UniProt P17252) here?
**A.** inactive: -0.056

**Q.** With PPP2CB (UniProt E5RHC1) as the target, how does the log2 fold change read?
**A.** inactive: -0.05

**Q.** How did the log2 fold change turn out when PPM1H (UniProt Q9ULR3) was run?
**A.** inactive: 0.001

**Q.** How did the log2 fold change turn out when PRADC1 (UniProt Q9BSG0) was run?
**A.** inactive: 0.053

**Q.** How did the log2 fold change turn out when PPP2R2D (UniProt Q66LE6) was run?
**A.** inactive: 0.067

**Q.** How did the log2 fold change turn out when PRMT7 (UniProt Q9NVM4) was run?
**A.** inactive: -0.032

**Q.** How did the log2 fold change turn out when PPP2R2A isoform 2 (UniProt P63151) was run?
**A.** inactive: -0.005

**Q.** Which log2 fold change does the source give for PPT1 (UniProt P50897) here?
**A.** inactive: 0.029

**Q.** For PPP1CB (UniProt P62140), which log2 fold change is on record?
**A.** inactive: -0.025

**Q.** How did the log2 fold change turn out when PRPF6 (UniProt O94906) was run?
**A.** inactive: 0.026

Compound: Cn1cc(CNCC2CCN(c3ncc(C(=O)NO)cn3)CC2)c2ccccc21 [quisinostat]
Assay: as above
Method in brief: as §1

**Q.** With PPP4R4 (UniProt Q6NUP7) as the target, how does the log2 fold change read?
**A.** inactive: -0.279

**Q.** How did the log2 fold change turn out when PRKCQ (UniProt Q04759) was run?
**A.** inactive: 0.029

**Q.** With PPP1R3D (UniProt O95685) as the target, how does the log2 fold change read?
**A.** inactive: -0.005

**Q.** With PPP5C (UniProt P53041) as the target, how does the log2 fold change read?
**A.** inactive: 0.001

**Q.** PRMT9 (UniProt Q6P2P2) was tested. Which log2 fold change did it give?
**A.** inactive: -0.029

**Q.** PRKAR1B (UniProt P31321) was tested. Which log2 fold change did it give?
**A.** inactive: 0.191

**Q.** How did the log2 fold change turn out when PRORP (UniProt O15091) was run?
**A.** inactive: -0.071

**Q.** PRNP (UniProt P04156) was tested. Which log2 fold change did it give?
**A.** inactive: -0.019

**Q.** How did the log2 fold change turn out when PRPF19 (UniProt Q9UMS4) was run?
**A.** inactive: -0.006

**Q.** Which log2 fold change does the source give for PPP2R5B (UniProt Q15173) here?
**A.** inactive: 0.058

**Q.** PRKD3 (UniProt O94806) was tested. Which log2 fold change did it give?
**A.** inactive: -0.014

**Q.** PPP6R1 (UniProt Q9UPN7) was tested. Which log2 fold change did it give?
**A.** inactive: -0.011

**Q.** Which log2 fold change does the source give for PPP6C isoform 3 (UniProt O00743) here?
**A.** inactive: 0.009

**Q.** How did the log2 fold change turn out when PRKACA (UniProt P17612) was run?
**A.** inactive: 0.097

**Q.** How did the log2 fold change turn out when PRKD2 isoform 3 (UniProt Q9BZL6) was run?
**A.** inactive: -0.046

**Q.** Which log2 fold change does the source give for PPP2R3B (UniProt Q9Y5P8) here?
**A.** inactive: -0.058

**Q.** With PRKDC (UniProt P78527) as the target, how does the log2 fold change read?
**A.** inactive: -0.093

**Q.** With PRG4 (UniProt Q92954) as the target, how does the log2 fold change read?
**A.** inactive: -0.285

**Q.** Which log2 fold change does the source give for PPP1R13L (UniProt Q8WUF5) here?
**A.** inactive: 0.003

**Q.** With PRMT1 (UniProt Q99873) as the target, how does the log2 fold change read?
**A.** inactive: -0.082

**Q.** For PROS1 (UniProt P07225), which log2 fold change is on record?
**A.** inactive: -0.089

**Q.** How did the log2 fold change turn out when PPP1R12B isoform 6 (UniProt O60237) was run?
**A.** active: -0.531

**Q.** With PRKCA (UniProt P17252) as the target, how does the log2 fold change read?
**A.** inactive: -0.035

**Q.** Which log2 fold change does the source give for PPP2CB (UniProt E5RHC1) here?
**A.** inactive: -0.041

**Q.** Which log2 fold change does the source give for PPM1H (UniProt Q9ULR3) here?
**A.** inactive: -0.036

**Q.** How did the log2 fold change turn out when PRADC1 (UniProt Q9BSG0) was run?
**A.** inactive: -0.007

**Q.** For PPP2R2D (UniProt Q66LE6), which log2 fold change is on record?
**A.** inactive: 0.064

**Q.** PRMT7 (UniProt Q9NVM4) was tested. Which log2 fold change did it give?
**A.** inactive: -0.041

**Q.** How did the log2 fold change turn out when PPP2R2A isoform 2 (UniProt P63151) was run?
**A.** inactive: 0.023

**Q.** PPT1 (UniProt P50897) was tested. Which log2 fold change did it give?
**A.** inactive: 0.024

**Q.** PPP1CB (UniProt P62140) was tested. Which log2 fold change did it give?
**A.** inactive: 0.012

**Q.** PRPF6 (UniProt O94906) was tested. Which log2 fold change did it give?
**A.** inactive: -0.067

Compound: Cn1cncc1[C@@](N)(c1ccc(Cl)cc1)c1ccc2c(c1)c(-c1cccc(Cl)c1)cc(=O)n2C [tipifarnib]
Assay: as above
Method in brief: as §1

**Q.** PPP4R4 (UniProt Q6NUP7) was tested. Which log2 fold change did it give?
**A.** inactive: 0.012

**Q.** How did the log2 fold change turn out when PRKCQ (UniProt Q04759) was run?
**A.** inactive: 0.023

**Q.** PPP1R3D (UniProt O95685) was tested. Which log2 fold change did it give?
**A.** inactive: 0.006

**Q.** For PPP5C (UniProt P53041), which log2 fold change is on record?
**A.** inactive: 0.004

**Q.** How did the log2 fold change turn out when PRMT9 (UniProt Q6P2P2) was run?
**A.** inactive: 0.014

**Q.** Which log2 fold change does the source give for PRKAR1B (UniProt P31321) here?
**A.** inactive: 0.022

**Q.** PRKX (UniProt P51817) was tested. Which log2 fold change did it give?
**A.** inactive: -0.014

**Q.** Which log2 fold change does the source give for PRORP (UniProt O15091) here?
**A.** inactive: -0.128

**Q.** Which log2 fold change does the source give for PRNP (UniProt P04156) here?
**A.** inactive: -0.027

**Q.** PRPF19 (UniProt Q9UMS4) was tested. Which log2 fold change did it give?
**A.** inactive: 0.018

**Q.** Which log2 fold change does the source give for PRKD3 (UniProt O94806) here?
**A.** inactive: 0.087

**Q.** PPP6R1 (UniProt Q9UPN7) was tested. Which log2 fold change did it give?
**A.** inactive: -0.007

**Q.** For PPP6C isoform 3 (UniProt O00743), which log2 fold change is on record?
**A.** inactive: 0.023

**Q.** With PRKACA (UniProt P17612) as the target, how does the log2 fold change read?
**A.** inactive: -0.083

**Q.** How did the log2 fold change turn out when PRKD2 isoform 3 (UniProt Q9BZL6) was run?
**A.** inactive: 0.069

**Q.** Which log2 fold change does the source give for PPP1R14C (UniProt Q8TAE6) here?
**A.** inactive: 0.073

**Q.** How did the log2 fold change turn out when PRKDC (UniProt P78527) was run?
**A.** inactive: -0.011

**Q.** How did the log2 fold change turn out when PRG4 (UniProt Q92954) was run?
**A.** inactive: 0.17

**Q.** For PPP1R13L (UniProt Q8WUF5), which log2 fold change is on record?
**A.** inactive: 0.245

**Q.** How did the log2 fold change turn out when PRMT1 (UniProt Q99873) was run?
**A.** inactive: 0.011

**Q.** PROS1 (UniProt P07225) was tested. Which log2 fold change did it give?
**A.** inactive: -0.041

**Q.** With PRKCA (UniProt P17252) as the target, how does the log2 fold change read?
**A.** inactive: 0

**Q.** PPP2CB (UniProt E5RHC1) was tested. Which log2 fold change did it give?
**A.** inactive: 0.202

**Q.** For PRADC1 (UniProt Q9BSG0), which log2 fold change is on record?
**A.** inactive: 0.296

**Q.** Which log2 fold change does the source give for PPP2R2D (UniProt Q66LE6) here?
**A.** inactive: -0.07

**Q.** With PRMT7 (UniProt Q9NVM4) as the target, how does the log2 fold change read?
**A.** inactive: -0.011

**Q.** For PPP2R2A isoform 2 (UniProt P63151), which log2 fold change is on record?
**A.** inactive: 0.004

**Q.** With PPT1 (UniProt P50897) as the target, how does the log2 fold change read?
**A.** inactive: 0.049

**Q.** Which log2 fold change does the source give for PPP1CB (UniProt P62140) here?
**A.** inactive: 0.038

**Q.** For PRPF6 (UniProt O94906), which log2 fold change is on record?
**A.** inactive: 0.008
